At least one structure is not confirmed: it was looked up by name or label, or the drawing left a doubt.
System: SMN sub-cellular localization in HeLa PV cells
Assay: SMN sub-cellular localization by indirect immunofluorescence (anti-SMN 2B1)
Format: cell-based
Conditions: >24 hr (FIG. 5a)
Protocol: HeLa PV were cultured in Dulbecco's modified Eagle's medium (Invitrogen) supplemented with 10% fetal bovine serum (Invitrogen). For screening, cells were seeded onto 384-well plates or, for specific experiments, on glass coverslips the day before treatment. Compounds were added directly into the culture medium to the indicated concentration and the cells were then maintained at 37° C. in a 5% CO2 humidified atmosphere for the duration of the treatment. Dispensing of compounds and other automatic liquid handling steps were performed with a Beckman FX multi-channel system equipped with Hudson Crane robotic systems. […]
Indirect immunofluorescence on HeLa PV cells was performed as follows: HeLa cells, plated on glass coverslips, were briefly washed with PBS, fixed in 2% formaldehyde/PBS for 20 minutes at room temperature, permeabilized in 0.5% Triton X-100/PBS for 5 min at room temperature. […] Images were analyzed using automated algorithms with parameters set to calculate mean pixel intensity in each nucleus (defined by DAPI staining and acquired in a separate channel), cytoplasm, and total cell, as well as the relevant calculated ratios of these values. […]

CCC(=O)CCCCC[C@@H]1NC(=O)[C@H]2CCCCN2C(=O)[C@H]([C@@H](C)CC)NC(=O)[C@H](Cc2cn(OC)c3ccccc23)NC1=O [apicidin]
nuclear translocation of SMN at longer times: caused the same effect as protein synthesis inhibitors

From US9926588B2, “Method for testing and screening P38 MAP kinase modifiers” (THE TRUSTEES OF THE UNIVERSITY OF PENNSYLVANIA, priority 2007, dated 2018)
